Results as given in patent US8344028B2, “Gamma-amino-butyric acid derivatives as GABAB receptor ligands” (XenoPort, Inc., priority 2009, dated 2013).
Where a name gives a salt, the structure may show the parent alone. For part of these data: For at least one compound, name, drawing or mass did not settle the structure. Some of these results come from one statement about several compounds together.

By UniProt entry, the sequences of proteins in these tests, tags left out. Residues count along the entry.
UniProt Q9UBS5, 20-961: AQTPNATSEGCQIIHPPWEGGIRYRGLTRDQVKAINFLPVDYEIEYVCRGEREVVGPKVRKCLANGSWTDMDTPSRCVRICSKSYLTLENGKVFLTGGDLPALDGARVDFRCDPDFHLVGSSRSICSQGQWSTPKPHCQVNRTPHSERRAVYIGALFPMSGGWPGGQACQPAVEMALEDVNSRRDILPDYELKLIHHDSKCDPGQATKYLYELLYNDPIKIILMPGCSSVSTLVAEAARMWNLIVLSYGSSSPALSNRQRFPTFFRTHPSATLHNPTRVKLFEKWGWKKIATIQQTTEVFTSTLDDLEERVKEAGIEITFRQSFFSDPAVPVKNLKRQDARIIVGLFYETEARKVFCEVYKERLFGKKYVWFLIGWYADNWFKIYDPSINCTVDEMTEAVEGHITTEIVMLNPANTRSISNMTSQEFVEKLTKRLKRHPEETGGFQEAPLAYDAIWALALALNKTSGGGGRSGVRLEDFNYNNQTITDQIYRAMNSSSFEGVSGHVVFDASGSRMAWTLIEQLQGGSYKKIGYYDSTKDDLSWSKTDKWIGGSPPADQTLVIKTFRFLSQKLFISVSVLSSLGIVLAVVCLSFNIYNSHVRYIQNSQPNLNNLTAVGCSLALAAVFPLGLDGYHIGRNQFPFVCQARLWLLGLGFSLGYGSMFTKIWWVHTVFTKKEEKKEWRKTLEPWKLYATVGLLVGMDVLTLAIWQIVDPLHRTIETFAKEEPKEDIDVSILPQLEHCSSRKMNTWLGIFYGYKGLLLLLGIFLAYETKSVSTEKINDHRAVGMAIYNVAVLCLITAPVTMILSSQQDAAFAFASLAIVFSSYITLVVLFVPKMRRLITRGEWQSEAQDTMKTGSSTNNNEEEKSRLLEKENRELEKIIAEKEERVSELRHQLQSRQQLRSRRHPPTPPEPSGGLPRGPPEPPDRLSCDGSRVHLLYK

Tests used:
[1] = test system: rat spinal nerve ligation model; experiment: Spinal nerve ligation pain model; assay type: in vivo; conditions: rats, 1 hour following administration
[2] = target: GABAB receptor (Homo sapiens, UniProt Q9UBS5); experiment: GABAB receptor agonist or partial agonist activity by binding, electrophysiology, cAMP and/or Ca2+ assay methods (Examples 83-86); assay type: cell-based
Method: An assay using rat cerebral cortex membranes was used to determine the affinity of GABAB receptor ligands for the GABAB receptor.
An assay buffer of 50 mM Tris pH 7.4 was prepared with 100 μM of isoguvacine, to block GABAA interactions. The assay buffer with isoguvacine was used for dilution of membranes, compounds, and radiolabel.
Rat cerebral cortex membranes were diluted in assay buffer at 1 mg/mL and aliquoted into a 96-well plate at 900 μL/well. Buffer or test compound were added at 20-times final concentration in the buffer at 50 μL/well. Membranes and test compounds or buffer were incubated for 10 min. at room temperature. […] Three (3) mL of scintillation fluid was added to each vial and the radiolabel counted on the scintillation counter. […]
The following procedure was used to determine the level of intracellular cAMP. Recombinant HEK cells expressing the GABAB R1a2 receptor were used in the experiments. cAMP levels were measured using a cAMP XS^+ HitHunter™ Chemiluminescence Assay Kit (90-0075-02, GE Healthcare Biosciences Corp.). […] The cAMP concentration was determined according to the protocol described in the cAMP assay kit, maintaining the plate at room temperature and in the dark. […] Each well was read for 6 seconds. The untransformed data was then analyzed. […]

[3] = Bioavailability following oral administration to rats; assay type: in vivo, rat; conditions: oral AUC vs AUC after intravenous administration of the GABAB ligand, dose normalized
Method: Rats were obtained commercially and were pre-cannulated in the jugular vein. Animals were conscious at the time of the experiment. All animals were fasted overnight and until 4 hours post-dosing of a compound.
Rat blood samples (0.3 mL/sample) were collected from all animals prior to dosing and at different time-points up to 24 h post-dose into tubes containing EDTA. Two aliquots (100 μL each) were quenched with 300 μL methanol and stored at −20° C. prior to analysis.
To prepare analysis standards, 90 μL of rat blood was quenched with 300 μL methanol followed by 10 μL of spiking standard and/or 20 μL of internal standard. The sample tubes were vortexed for at least 2 min and then centrifuged at 3400 rpm for 20 min. The supernatant was then transferred to an injection vial or plate for analysis by LC-MS-MS.
To prepare samples for analysis, 20 μL of internal standard was added to each quenched sample tube. The sample tubes were vortexed for at least 2 min and then centrifuged at 3400 rpm for 20 min. […]
The oral bioavailability (F %) of a compound was determined by comparing the area under the compound concentration vs time curve (AUC) following oral administration of a prodrug of a GABAB ligand with the AUC of the compound concentration vs time curve following intravenous administration of the GABAB ligand on a dose normalized basis.

## Cl.NC[C@H](CC(=O)O)c1ccc(Cl)c(-c2cc(C(=O)O)cs2)c1 [5-{5-[(1R)-2-amino-1-(carboxymethyl)ethyl]-2-chlorophenyl}thiophene-3-carboxylic acid hydrochloride]
[1]
  EC50 for efficacy in the spinal nerve ligation model of pain: less than 100 μmol/kg

## NC[C@H](CC(=O)O)c1ccc(Cl)c(-c2ccc3[nH]cnc3c2)c1 [Example 26, (3R)-4-Amino-3-(3-benzimidazol-6-yl-4-chlorophenyl)butanoic acid hydrochloride]
[2]
  GABAB receptor agonist or partial agonist activity: agonist or partial agonist activity

## Cl.NC[C@H](CC(=O)O)c1ccc(Cl)c(-c2csc(C(=O)O)c2)c1 [Example 27, 4-{5-[(1R)-2-Amino-1-(carboxymethyl)ethyl]-2-chlorophenyl}thiophene-2-carboxylic acid hydrochloride]
[1]
  EC50 for efficacy in the spinal nerve ligation model of pain: less than 100 μmol/kg

## Cl.NC[C@H](CC(=O)O)c1ccc(Cl)c(OCc2ccncc2)c1 [Example 68, (3R)-4-Amino-3-[4-chloro-3-(4-pyridylmethoxy)phenyl]butanoic acid hydrochloride]
[1]
  EC50 for efficacy in the spinal nerve ligation model of pain: less than 100 μmol/kg

## CC(C)[C@H](N)C(=O)NC[C@H](CC(=O)O)c1ccc(Cl)c(OCc2ccncc2)c1.Cl [Example 74]
[3]
  oral bioavailability (F %): greater than 10%

## COC(=O)c1ccc(-c2cc([C@H](CNC(=O)OC(C)OC(=O)C(C)C)CC(=O)O)ccc2Cl)s1 (stereo partly drawn) [Example 81]
[3]
  oral bioavailability (F %): greater than 10%
